Test results from the supplement of paper PMC11732987, “Enantioselective OTUD7B fragment discovery through chemoproteomics screening and high-throughput optimisation” (Communications Chemistry, 2025).
The list shows a part of the results. The data scatter; read single values as rough.

Protein sequences, listed by entry. Tags and fused reporters are not part of them. Lines headed by an entry give the natural chain unless they say otherwise; changes in a name come on top. Residues count along the entry.
UniProt Q13505: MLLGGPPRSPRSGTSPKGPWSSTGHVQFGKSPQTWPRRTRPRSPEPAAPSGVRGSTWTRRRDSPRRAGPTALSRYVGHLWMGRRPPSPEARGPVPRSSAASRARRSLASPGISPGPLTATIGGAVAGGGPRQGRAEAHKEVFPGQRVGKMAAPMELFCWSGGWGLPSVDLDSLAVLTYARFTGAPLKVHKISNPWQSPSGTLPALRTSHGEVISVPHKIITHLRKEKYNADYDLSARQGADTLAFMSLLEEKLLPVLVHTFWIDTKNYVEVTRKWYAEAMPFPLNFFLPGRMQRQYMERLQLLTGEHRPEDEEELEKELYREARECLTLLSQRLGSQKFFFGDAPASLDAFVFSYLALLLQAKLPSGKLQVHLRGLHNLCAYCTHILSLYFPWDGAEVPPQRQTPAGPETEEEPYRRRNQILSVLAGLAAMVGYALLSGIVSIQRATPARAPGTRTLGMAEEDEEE
UniProt Q7Z6M4: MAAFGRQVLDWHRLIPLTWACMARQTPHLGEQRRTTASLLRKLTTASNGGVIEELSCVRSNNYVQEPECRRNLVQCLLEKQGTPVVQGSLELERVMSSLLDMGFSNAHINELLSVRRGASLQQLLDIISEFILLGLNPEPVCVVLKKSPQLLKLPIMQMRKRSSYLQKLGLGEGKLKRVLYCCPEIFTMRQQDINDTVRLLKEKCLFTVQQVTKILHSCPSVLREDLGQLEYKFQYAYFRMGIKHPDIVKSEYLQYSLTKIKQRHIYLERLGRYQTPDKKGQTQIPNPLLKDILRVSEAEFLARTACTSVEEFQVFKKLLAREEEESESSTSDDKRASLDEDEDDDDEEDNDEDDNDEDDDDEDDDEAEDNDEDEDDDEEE
UniProt Q765P7, 610-632: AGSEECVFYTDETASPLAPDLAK
UniProt Q9ULD2: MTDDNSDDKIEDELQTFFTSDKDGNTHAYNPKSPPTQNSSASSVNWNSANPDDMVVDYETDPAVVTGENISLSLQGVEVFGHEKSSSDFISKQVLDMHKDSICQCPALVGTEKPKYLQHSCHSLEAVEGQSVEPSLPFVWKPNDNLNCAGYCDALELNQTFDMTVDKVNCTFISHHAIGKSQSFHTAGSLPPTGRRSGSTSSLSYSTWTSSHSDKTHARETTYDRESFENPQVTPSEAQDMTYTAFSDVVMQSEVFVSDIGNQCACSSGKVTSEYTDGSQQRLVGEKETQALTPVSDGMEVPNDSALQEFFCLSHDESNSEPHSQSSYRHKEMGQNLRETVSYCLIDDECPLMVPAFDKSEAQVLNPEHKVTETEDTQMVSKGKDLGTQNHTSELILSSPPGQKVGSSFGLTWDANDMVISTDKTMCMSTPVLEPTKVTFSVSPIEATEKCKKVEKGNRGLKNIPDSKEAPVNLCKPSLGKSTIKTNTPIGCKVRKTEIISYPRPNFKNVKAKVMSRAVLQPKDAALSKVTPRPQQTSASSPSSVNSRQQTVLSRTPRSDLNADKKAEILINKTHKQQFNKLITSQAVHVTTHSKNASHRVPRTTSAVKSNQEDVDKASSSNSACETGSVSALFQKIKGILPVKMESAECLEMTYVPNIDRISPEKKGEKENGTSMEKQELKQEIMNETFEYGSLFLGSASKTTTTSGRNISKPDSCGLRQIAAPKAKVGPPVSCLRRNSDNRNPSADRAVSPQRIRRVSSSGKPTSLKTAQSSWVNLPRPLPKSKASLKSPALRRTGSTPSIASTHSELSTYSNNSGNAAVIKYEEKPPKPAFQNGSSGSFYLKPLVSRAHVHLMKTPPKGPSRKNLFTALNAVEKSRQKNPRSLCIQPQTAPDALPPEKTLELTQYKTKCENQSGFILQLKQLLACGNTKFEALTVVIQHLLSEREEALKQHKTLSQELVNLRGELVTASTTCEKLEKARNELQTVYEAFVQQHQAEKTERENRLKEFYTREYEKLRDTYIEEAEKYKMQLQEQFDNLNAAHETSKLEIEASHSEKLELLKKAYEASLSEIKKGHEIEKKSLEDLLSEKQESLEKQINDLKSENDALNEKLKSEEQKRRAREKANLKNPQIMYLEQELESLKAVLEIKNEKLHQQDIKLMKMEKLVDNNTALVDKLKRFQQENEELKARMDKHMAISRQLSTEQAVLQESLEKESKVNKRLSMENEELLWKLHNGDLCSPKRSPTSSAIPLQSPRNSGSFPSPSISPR
UniProt P35579, 83-104: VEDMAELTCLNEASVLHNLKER
UniProt Q15390: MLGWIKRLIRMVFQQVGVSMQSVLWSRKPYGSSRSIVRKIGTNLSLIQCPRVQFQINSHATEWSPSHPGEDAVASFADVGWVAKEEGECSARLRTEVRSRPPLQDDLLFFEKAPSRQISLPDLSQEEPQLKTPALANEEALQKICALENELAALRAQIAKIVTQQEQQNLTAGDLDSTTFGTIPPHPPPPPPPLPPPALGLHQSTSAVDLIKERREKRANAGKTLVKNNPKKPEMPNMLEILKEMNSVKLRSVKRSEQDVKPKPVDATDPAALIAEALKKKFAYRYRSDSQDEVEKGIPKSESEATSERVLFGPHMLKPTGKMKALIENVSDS
UniProt P20585: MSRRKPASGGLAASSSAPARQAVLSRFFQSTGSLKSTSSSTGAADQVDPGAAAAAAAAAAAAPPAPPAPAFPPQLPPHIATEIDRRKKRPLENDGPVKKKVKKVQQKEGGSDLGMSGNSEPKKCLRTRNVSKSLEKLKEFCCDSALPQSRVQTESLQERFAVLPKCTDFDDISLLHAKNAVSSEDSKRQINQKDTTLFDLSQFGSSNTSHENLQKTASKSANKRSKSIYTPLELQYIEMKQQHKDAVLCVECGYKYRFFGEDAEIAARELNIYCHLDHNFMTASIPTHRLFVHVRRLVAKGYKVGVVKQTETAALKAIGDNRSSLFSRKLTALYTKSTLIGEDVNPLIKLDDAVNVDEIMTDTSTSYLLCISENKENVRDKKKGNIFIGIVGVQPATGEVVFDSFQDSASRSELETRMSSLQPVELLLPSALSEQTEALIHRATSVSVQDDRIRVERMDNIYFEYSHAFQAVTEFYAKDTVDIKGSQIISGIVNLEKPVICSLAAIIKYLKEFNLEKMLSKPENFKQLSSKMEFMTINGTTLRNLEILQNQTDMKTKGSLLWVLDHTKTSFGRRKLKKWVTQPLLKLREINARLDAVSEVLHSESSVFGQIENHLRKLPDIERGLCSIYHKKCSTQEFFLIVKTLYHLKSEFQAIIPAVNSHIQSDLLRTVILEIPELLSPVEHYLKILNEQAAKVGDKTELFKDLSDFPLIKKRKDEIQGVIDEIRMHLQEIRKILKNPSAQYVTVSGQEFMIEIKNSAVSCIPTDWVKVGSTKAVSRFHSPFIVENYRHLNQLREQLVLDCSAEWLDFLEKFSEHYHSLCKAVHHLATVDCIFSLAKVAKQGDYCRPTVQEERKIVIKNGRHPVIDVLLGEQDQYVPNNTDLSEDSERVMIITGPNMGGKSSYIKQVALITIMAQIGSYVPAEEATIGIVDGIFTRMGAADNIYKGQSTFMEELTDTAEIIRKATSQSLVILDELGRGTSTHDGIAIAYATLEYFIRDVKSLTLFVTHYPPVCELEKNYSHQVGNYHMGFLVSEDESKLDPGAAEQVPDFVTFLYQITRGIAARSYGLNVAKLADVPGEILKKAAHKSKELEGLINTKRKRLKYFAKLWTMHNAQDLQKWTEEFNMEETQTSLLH
UniProt O43795: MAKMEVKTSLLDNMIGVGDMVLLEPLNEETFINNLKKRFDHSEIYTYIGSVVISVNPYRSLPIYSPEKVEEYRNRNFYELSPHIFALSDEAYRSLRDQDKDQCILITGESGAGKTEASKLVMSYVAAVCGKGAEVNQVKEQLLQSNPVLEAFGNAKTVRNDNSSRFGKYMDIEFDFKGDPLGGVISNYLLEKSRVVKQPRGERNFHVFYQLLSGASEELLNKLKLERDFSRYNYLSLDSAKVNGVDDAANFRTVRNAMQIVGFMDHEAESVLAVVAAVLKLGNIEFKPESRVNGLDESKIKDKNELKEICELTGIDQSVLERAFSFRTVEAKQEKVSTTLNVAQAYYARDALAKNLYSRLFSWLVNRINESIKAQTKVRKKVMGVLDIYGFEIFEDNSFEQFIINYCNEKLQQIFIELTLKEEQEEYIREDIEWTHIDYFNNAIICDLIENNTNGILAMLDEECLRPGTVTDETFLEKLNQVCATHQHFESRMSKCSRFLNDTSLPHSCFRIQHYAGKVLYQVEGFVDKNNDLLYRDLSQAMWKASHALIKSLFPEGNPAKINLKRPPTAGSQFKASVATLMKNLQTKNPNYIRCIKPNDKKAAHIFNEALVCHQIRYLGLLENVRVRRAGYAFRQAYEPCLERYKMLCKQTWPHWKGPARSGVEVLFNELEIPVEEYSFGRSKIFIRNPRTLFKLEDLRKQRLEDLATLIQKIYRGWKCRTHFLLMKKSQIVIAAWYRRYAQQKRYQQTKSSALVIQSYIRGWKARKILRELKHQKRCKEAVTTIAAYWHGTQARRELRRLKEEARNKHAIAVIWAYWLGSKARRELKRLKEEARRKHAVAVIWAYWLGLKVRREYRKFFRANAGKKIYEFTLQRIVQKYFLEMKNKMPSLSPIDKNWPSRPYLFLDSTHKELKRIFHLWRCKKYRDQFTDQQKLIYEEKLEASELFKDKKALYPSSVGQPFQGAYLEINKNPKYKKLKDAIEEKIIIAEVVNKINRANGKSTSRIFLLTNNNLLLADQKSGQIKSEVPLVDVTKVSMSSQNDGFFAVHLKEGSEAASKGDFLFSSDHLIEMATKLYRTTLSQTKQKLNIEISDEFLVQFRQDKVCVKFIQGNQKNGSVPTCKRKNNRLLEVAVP
UniProt Q96RE7: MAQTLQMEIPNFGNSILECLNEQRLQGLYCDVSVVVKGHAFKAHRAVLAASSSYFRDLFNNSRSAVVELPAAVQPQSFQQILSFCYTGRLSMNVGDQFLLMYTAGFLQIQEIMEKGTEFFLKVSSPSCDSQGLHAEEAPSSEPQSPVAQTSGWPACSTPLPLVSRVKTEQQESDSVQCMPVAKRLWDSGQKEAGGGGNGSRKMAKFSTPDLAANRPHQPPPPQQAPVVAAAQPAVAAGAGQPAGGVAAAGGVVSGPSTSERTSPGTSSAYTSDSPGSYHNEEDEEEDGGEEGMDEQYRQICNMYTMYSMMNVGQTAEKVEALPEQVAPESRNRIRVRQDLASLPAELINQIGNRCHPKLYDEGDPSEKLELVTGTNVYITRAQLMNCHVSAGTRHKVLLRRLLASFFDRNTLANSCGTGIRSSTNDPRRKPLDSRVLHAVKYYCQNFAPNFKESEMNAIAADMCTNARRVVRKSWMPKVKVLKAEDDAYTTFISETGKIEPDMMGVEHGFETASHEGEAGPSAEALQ
UniProt Q9Y2Z2: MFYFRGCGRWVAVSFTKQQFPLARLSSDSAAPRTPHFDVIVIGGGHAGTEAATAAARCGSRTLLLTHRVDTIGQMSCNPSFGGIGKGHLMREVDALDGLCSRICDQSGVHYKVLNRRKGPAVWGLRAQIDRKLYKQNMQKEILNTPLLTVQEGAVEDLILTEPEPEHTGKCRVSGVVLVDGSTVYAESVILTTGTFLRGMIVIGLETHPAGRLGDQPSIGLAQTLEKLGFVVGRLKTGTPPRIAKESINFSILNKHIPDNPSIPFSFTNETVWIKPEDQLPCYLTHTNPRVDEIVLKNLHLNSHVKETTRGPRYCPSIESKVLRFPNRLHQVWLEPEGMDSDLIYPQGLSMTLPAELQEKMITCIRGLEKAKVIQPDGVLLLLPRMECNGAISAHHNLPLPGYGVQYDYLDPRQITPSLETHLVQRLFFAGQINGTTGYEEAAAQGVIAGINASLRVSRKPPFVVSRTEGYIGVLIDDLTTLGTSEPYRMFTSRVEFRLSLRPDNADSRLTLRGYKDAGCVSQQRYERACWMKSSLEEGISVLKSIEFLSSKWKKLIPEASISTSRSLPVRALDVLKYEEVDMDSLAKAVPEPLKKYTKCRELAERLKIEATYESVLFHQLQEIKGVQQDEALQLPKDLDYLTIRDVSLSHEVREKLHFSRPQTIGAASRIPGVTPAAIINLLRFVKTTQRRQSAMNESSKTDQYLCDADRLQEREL
UniProt Q96DP5: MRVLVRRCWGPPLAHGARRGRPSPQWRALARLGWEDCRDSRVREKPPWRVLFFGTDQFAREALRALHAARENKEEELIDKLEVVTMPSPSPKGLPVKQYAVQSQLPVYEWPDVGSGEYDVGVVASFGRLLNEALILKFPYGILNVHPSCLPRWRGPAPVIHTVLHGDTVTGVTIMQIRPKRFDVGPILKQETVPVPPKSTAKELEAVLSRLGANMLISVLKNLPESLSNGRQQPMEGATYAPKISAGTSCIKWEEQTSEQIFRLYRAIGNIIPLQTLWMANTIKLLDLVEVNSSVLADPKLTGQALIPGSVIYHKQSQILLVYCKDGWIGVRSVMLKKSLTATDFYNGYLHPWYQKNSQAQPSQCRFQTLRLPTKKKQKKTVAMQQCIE
UniProt Q9UM54, 368-387: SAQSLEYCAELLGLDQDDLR

Assays:
[1] = compound: ClCC(=O)N[C@@H]1CCCc2ccccc12; experiment: log2 mean competition ratio of IA-DTB cysteine labelling (DMSO/compound) (log2 ratio); higher = stronger cysteine engagement by compound; conditions: treatment time: 4 h, cell line lysate: HEK293T
Procedure: (§1)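 IA-DTB competitive cysteine chemoproteomics in HEK293T RIPA lysate. Lysates were treated with compound 29 or 30 at 50 or 200 µM for 4 h, then IA-DTB (500 µM, 1 h), trypsin-digested, NeutrAvidin-enriched and analysed by diaPASEF. Competition ratio = intensity DMSO / intensity compound (n=4 treated, n=64 DMSO); binding: mean log2 CR ≥ 1 and p ≤ 0.05 plus QC filters. Target is the cysteine site.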

[2] = compound: ClCC(=O)N[C@H]1CCCc2ccccc12; experiment: as above; conditions: treatment time: 4 h, cell line lysate: HEK293T
Procedure: as §1

## MTX1 C326 (UniProt Q13505)
[1]; 50 µM
  log2 mean competition ratio: 0.239
[1]; 200 µM
  log2 mean competition ratio: -0.216
[2]; 50 µM
  log2 mean competition ratio: 0.372
[2]; 200 µM
  log2 mean competition ratio: -0.00997

## MYCBP2 C1169 (UniProt O75592)
[1]; 50 µM
  log2 mean competition ratio: 0.00758
[1]; 200 µM
  log2 mean competition ratio: -0.0503
[2]; 50 µM
  log2 mean competition ratio: 0.325
[2]; 200 µM
  log2 mean competition ratio: 0.0784

## MTERF4 C307 (UniProt Q7Z6M4)
[1]; 50 µM
  log2 mean competition ratio: -0.129
[1]; 200 µM
  log2 mean competition ratio: -0.142
[2]; 50 µM
  log2 mean competition ratio: -0.335
[2]; 200 µM
  log2 mean competition ratio: -0.0811

## NARS1 C537
[1]; 50 µM
  log2 mean competition ratio: -0.126
[1]; 200 µM
  log2 mean competition ratio: -0.163
[2]; 50 µM
  log2 mean competition ratio: -0.0672
[2]; 200 µM
  log2 mean competition ratio: -0.166

## MYO9A C1612 (UniProt B2RTY4)
[1]; 50 µM
  log2 mean competition ratio: -0.0314
[1]; 200 µM
  log2 mean competition ratio: -0.116
[2]; 50 µM
  log2 mean competition ratio: 0.115
[2]; 200 µM
  log2 mean competition ratio: 0.0623

## MYBL2 C668 (UniProt P10244)
[1]; 50 µM
  log2 mean competition ratio: -0.0828
[1]; 200 µM
  log2 mean competition ratio: 0.219
[2]; 50 µM
  log2 mean competition ratio: -0.0144
[2]; 200 µM
  log2 mean competition ratio: 0.422

## MTSS2 C615 (UniProt Q765P7)
[1]; 50 µM
  log2 mean competition ratio: -0.513
[1]; 200 µM
  log2 mean competition ratio: -0.384
[2]; 50 µM
  log2 mean competition ratio: 0.311
[2]; 200 µM
  log2 mean competition ratio: -0.163

## MTMR1 C12 (UniProt Q13613)
[1]; 50 µM
  log2 mean competition ratio: -0.00675
[1]; 200 µM
  log2 mean competition ratio: -0.261
[2]; 50 µM
  log2 mean competition ratio: 0.552
[2]; 200 µM
  log2 mean competition ratio: -0.271

## MRPS18C C100 (UniProt Q9Y3D5)
[1]; 50 µM
  log2 mean competition ratio: 0.0363
[1]; 200 µM
  log2 mean competition ratio: -0.376
[2]; 50 µM
  log2 mean competition ratio: 0.309
[2]; 200 µM
  log2 mean competition ratio: 0.0205

## MTUS1 C975 (UniProt Q9ULD2)
[1]; 50 µM
  log2 mean competition ratio: 0.25
[1]; 200 µM
  log2 mean competition ratio: 0.376
[2]; 50 µM
  log2 mean competition ratio: -0.176
[2]; 200 µM
  log2 mean competition ratio: 0.259

## MYH9 C91 (UniProt P35579)
[1]; 50 µM
  log2 mean competition ratio: -0.0481
[1]; 200 µM
  log2 mean competition ratio: 0.391
[2]; 50 µM
  log2 mean competition ratio: -0.454
[2]; 200 µM
  log2 mean competition ratio: 0.253

## MXI1 C100
[1]; 50 µM
  log2 mean competition ratio: -0.0276
[1]; 200 µM
  log2 mean competition ratio: 0.163
[2]; 50 µM
  log2 mean competition ratio: 0.0936
[2]; 200 µM
  log2 mean competition ratio: 0.204

## MTFR1 C89 (UniProt Q15390)
[1]; 50 µM
  log2 mean competition ratio: 0.00352
[1]; 200 µM
  log2 mean competition ratio: 0.132
[2]; 50 µM
  log2 mean competition ratio: 0.272
[2]; 200 µM
  log2 mean competition ratio: 0.147

## MRPS7 C191 (UniProt Q9Y2R9)
[1]; 50 µM
  log2 mean competition ratio: -0.0941
[1]; 200 µM
  log2 mean competition ratio: -0.0118
[2]; 50 µM
  log2 mean competition ratio: -0.116
[2]; 200 µM
  log2 mean competition ratio: -0.0278

## MSH3 C166 (UniProt P20585)
[1]; 50 µM
  log2 mean competition ratio: 0.276
[1]; 200 µM
  log2 mean competition ratio: 0.239
[2]; 50 µM
  log2 mean competition ratio: 0.714
[2]; 200 µM
  log2 mean competition ratio: -0.0919

## MRPL53 C63 (UniProt Q96EL3)
[1]; 50 µM
  log2 mean competition ratio: -0.183
[1]; 200 µM
  log2 mean competition ratio: 0.113
[2]; 50 µM
  log2 mean competition ratio: -0.371
[2]; 200 µM
  log2 mean competition ratio: 0.119

## MRPL17 C129 (UniProt Q9NRX2)
[1]; 50 µM
  log2 mean competition ratio: 0.0168
[1]; 200 µM
  log2 mean competition ratio: -0.241
[2]; 50 µM
  log2 mean competition ratio: -0.25
[2]; 200 µM
  log2 mean competition ratio: -0.242

## MYO1B C483 (UniProt O43795)
[1]; 50 µM
  log2 mean competition ratio: 0.458
[1]; 200 µM
  log2 mean competition ratio: -0.436
[2]; 50 µM
  log2 mean competition ratio: 0.345
[2]; 200 µM
  log2 mean competition ratio: -0.508

## NACC1 C178 (UniProt Q96RE7)
[1]; 50 µM
  log2 mean competition ratio: -0.126
[1]; 200 µM
  log2 mean competition ratio: 0.0871
[2]; 50 µM
  log2 mean competition ratio: -0.112
[2]; 200 µM
  log2 mean competition ratio: -0.265

## MYORG C125
[1]; 50 µM
  log2 mean competition ratio: -0.0904
[1]; 200 µM
  log2 mean competition ratio: 0.0569
[2]; 50 µM
  log2 mean competition ratio: -0.0959
[2]; 200 µM
  log2 mean competition ratio: 0.411

## MRPL20 C93 (UniProt Q9BYC9)
[1]; 50 µM
  log2 mean competition ratio: 0.347
[1]; 200 µM
  log2 mean competition ratio: -0.0689
[2]; 50 µM
  log2 mean competition ratio: 0.476
[2]; 200 µM
  log2 mean competition ratio: -0.119

## MTO1 C100 (UniProt Q9Y2Z2)
[1]; 50 µM
  log2 mean competition ratio: -0.101
[1]; 200 µM
  log2 mean competition ratio: 0.271
[2]; 50 µM
  log2 mean competition ratio: 0.00885
[2]; 200 µM
  log2 mean competition ratio: 0.16

## MTFMT C37 (UniProt Q96DP5)
[1]; 50 µM
  log2 mean competition ratio: -0.126
[1]; 200 µM
  log2 mean competition ratio: 0.349
[2]; 50 µM
  log2 mean competition ratio: -0.188
[2]; 200 µM
  log2 mean competition ratio: 0.414

## MTERF4 C69 (UniProt Q7Z6M4)
[1]; 50 µM
  log2 mean competition ratio: -0.0518
[1]; 200 µM
  log2 mean competition ratio: 0.329
[2]; 50 µM
  log2 mean competition ratio: -0.116
[2]; 200 µM
  log2 mean competition ratio: 0.294

## MYO6 C375 (UniProt Q9UM54)
[1]; 50 µM
  log2 mean competition ratio: -0.131
[1]; 200 µM
  log2 mean competition ratio: -0.243
[2]; 50 µM
  log2 mean competition ratio: -0.0641
[2]; 200 µM
  log2 mean competition ratio: -0.222
